From article PMC6555816, “Tau local structure shields an amyloid-forming motif and controls aggregation propensity” (Nature Communications, 2019)
Results are given in words; binding and its absence hold for the method and conditions named. Each block holds one binder with its values, some of them ahead of it.

Tests used:
Assay in all cases: ThT fluorescence aggregation assay; spontaneous self-assembly of disaggregated synthetic peptides, 200 µM, PBS, 25 µM ThT, room temperature, no inducer; the R2R3 peptides of Fig. 4 also looked at by TEM; both purified
[1] = target: wild-type peptide fragment R1R3 mimicking a 3R splice isoform (human)
[2] = target: upstream N-terminal sequence 295DNIKHV300 (human)
[3] = target: R1R3 peptide fragment with a corresponding P301L mutation (R1R3-P270L) (human)

- binding [1]: no binding (tested: 200 µM)
Binder: ENLKHQPGGGKVQIVYK (N-terminal acetylation; C-terminal amidation) [wild-type peptide fragment R1R3 mimicking a 3R splice isoform]

- binding [2]: no binding (tested: 200 µM)
Binder: DNIKHV (N-terminal acetylation; C-terminal amidation) [upstream N-terminal sequence 295DNIKHV300]

Binder: ENLKHQLGGGKVQIVYK (N-terminal acetylation; C-terminal amidation) [R1R3 peptide fragment with a corresponding P301L mutation (R1R3-P270L)]
- binding [3]: no binding (tested: 200 µM, within a week)
